{"sequences": {"note": "Sequences of proteins named here, by UniProt entry; tags and fusion partners are left off. A change or cut given only in a name is not applied to a line headed by its entry.", "UniProt Q01094": "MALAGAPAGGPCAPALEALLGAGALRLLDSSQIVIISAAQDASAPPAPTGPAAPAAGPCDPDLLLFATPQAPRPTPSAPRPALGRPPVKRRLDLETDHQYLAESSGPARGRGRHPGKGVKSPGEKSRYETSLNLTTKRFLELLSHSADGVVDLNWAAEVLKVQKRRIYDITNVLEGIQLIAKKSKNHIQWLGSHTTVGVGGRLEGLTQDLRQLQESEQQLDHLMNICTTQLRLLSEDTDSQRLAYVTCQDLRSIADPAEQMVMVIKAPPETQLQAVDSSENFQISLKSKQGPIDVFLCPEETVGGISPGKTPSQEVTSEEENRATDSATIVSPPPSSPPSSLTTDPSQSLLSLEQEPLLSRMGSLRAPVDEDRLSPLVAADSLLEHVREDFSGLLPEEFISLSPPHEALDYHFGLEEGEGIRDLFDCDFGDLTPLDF", "UniProt Q7KZF4": "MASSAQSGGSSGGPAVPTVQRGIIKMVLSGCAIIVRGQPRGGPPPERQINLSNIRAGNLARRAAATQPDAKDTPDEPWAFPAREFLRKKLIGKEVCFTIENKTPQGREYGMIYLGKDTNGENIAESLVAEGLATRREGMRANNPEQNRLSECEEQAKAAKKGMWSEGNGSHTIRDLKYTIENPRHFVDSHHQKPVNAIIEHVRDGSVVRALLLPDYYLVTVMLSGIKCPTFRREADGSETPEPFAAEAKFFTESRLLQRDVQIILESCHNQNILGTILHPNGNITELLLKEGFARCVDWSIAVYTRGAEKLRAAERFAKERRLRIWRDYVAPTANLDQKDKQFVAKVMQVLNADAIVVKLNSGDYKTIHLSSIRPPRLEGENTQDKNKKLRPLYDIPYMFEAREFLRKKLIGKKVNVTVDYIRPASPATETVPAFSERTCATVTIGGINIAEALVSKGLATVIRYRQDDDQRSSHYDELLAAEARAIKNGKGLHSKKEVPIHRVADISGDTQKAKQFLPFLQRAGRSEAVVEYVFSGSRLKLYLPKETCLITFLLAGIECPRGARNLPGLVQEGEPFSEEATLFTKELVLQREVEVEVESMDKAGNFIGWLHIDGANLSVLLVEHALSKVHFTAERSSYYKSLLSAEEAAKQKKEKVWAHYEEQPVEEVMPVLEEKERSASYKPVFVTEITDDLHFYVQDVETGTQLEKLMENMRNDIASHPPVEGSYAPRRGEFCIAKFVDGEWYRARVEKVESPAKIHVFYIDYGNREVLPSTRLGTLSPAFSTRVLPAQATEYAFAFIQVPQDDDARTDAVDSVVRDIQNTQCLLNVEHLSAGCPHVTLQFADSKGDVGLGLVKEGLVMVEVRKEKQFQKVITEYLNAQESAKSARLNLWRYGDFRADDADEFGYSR"}, "source": "paper PMC12667467", "target": "E2F transcription factor 1 (E2F1) (human (endogenous in MCF7 and T-47D)) (UniProt Q01094)", "assay": "co-IP; whole-cell extracts of MCF7 and T-47D cells (IP lysis buffer: 50 mM Tris-HCl pH 8.1, 10 mM EDTA, 1% SDS); IP with anti-SND1 or anti-E2F1 antibodies overnight at 4 °C, Dynabeads, western blot; normal rabbit IgG as negative control; cells untreated or treated with 0.1 µM palbociclib for 24 h", "note": "Results are given in words; binding and its absence hold for the method and conditions named. In cells and extracts the contact can be indirect. Some binding calls cover weakened binding; strength is not graded here."}
{"substance": "staphylococcal nuclease domain‐containing protein 1 (SND1) (from UniProt Q7KZF4 1-910)", "values": [{"measurement": "binding", "value": "binds"}]}
